Laboratory results: PMC12828377, “HDAC6-mediated PFKL deacetylation enhances aerobic glycolysis and promotes VSMC proliferation” (The Journal of Biological Chemistry, 2025)
No constants are given. Whether binding was seen depends on the method and setting. In cells and extracts the contact can be indirect. Some binding calls cover weakened binding; strength is not graded here.

Protein sequences, listed by entry. Tags and fused reporters are not part of them.
UniProt A0A8I6GM68: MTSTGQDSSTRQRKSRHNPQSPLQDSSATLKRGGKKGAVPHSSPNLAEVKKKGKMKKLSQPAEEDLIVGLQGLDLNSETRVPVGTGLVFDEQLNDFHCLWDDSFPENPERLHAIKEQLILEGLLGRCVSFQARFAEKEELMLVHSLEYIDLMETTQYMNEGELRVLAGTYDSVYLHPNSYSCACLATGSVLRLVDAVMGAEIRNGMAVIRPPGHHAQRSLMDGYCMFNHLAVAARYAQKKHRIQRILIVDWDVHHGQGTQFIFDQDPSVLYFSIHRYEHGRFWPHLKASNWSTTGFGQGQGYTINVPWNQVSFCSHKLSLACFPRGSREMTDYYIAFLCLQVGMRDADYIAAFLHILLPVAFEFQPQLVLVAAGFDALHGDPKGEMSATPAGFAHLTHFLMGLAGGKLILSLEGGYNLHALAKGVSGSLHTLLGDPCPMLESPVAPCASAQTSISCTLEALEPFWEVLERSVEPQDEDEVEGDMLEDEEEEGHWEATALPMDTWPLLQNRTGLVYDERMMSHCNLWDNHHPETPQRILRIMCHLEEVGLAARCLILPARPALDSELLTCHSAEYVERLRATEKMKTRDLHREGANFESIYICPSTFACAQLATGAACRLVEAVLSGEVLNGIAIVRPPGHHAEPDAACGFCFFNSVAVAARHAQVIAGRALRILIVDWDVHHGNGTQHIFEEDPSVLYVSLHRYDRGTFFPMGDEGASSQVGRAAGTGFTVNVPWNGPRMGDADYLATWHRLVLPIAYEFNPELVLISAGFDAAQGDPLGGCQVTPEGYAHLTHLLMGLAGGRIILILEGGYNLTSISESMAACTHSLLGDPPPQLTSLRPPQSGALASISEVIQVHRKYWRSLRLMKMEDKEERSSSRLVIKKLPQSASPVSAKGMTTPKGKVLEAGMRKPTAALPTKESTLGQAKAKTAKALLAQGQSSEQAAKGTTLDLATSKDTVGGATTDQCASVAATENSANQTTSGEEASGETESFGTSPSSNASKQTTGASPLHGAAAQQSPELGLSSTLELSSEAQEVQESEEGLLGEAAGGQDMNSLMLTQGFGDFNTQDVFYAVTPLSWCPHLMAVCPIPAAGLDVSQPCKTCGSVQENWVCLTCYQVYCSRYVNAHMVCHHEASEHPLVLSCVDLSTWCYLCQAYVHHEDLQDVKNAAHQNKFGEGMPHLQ

How the values were obtained:
[1] = biological target: T1, phosphofructokinase, liver type (PFKL) (rat (endogenous in primary rat VSMCs)) (UniProt P30835); experiment: proximity ligation; in situ PLA (NaveniFlex kit) in VSMCs fixed with 4% paraformaldehyde, antibodies against PFKL and HDAC6; with or without PDGF-BB
T1 sequence: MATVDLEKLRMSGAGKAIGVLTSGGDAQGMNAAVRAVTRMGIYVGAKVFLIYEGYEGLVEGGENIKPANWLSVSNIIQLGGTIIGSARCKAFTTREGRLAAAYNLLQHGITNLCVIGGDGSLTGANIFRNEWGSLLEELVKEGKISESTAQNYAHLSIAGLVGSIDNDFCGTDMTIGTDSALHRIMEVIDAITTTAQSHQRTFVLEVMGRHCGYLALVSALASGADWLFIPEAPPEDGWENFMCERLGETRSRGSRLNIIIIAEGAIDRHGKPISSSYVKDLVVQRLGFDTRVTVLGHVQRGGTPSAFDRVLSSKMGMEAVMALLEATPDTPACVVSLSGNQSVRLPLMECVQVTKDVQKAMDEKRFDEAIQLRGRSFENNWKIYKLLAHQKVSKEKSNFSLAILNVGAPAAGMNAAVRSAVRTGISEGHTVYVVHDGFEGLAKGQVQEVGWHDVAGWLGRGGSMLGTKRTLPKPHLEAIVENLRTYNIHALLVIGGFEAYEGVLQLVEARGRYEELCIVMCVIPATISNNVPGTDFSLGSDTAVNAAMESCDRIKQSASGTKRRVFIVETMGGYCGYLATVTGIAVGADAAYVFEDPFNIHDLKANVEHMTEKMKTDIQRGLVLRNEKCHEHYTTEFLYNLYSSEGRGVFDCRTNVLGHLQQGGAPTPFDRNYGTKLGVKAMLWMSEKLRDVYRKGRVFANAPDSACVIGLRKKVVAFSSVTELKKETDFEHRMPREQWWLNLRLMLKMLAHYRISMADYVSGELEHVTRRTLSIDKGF

[2] = biological target: T1, phosphofructokinase, liver type (PFKL) (rat (endogenous in primary rat VSMCs)); experiment: co-IP; endogenous proteins in VSMC lysate (NP-40 lysis buffer), indicated antibodies and protein A/G agarose at 4 °C, Western blot; with or without PDGF-BB for 24 h
[3] = biological target: phosphofructokinase, muscle type (PFKM) (rat (endogenous in primary rat VSMCs)) (UniProt P47858); experiment: cross-linking; VSMC lysate (700 ug protein in NP40 buffer) fixed with 0.1% glutaraldehyde on ice for 10 min, then Western blot; cells with or without PDGF-BB (10 ng/ml, different durations), TSA or NAM, or transduced with Ad-PFKL WT/K563Q/K563R
[4] = biological target: phosphofructokinase, platelet type (PFKP) (rat (endogenous in primary rat VSMCs)) (UniProt P47860); experiment: as above

## HDAC6 (from UniProt A0A8I6GM68 1-1183) (enzyme)
[1]
  binding: binds
[2]
  binding: binds

B1: phosphofructokinase, muscle type (PFKM) (enzyme, UniProt P47858 1-780)
chain: MTHEEHHEAKTLGIGKAIAVLTSGGDAQGMNATVRAVVRVGIFTGLRVFFVHEGYQGLVDGGEHIREATWESVSMMLQLGGTVIGSARCKDFREREGRLRAAHNLVKRGITNLCVIGGDGSLTGADTFRSEWSDLLNDLQKDGKITAEERTKSSYLNIVFLVGSIDNDFCGTDMTIGTDSALHRIVEIVDAITTTAQSHQRTFVLEVMGRHCGYLALVTSLSCGADWVFIPECPPDDDWEEHLCRRLSETRTRGSRLNIIIVAEGAIDKNGKPITSEDIKNLVVKRLGYDTRVTVLGHVQRGGTPSAFDRILGSRMGVEAVMALLEGTPDTPACVVSLSGNTAVRLPLMECVQVTKDVTKAMDEKRFDEAIKLRGRSFMNNWEVYKLLAHVRPPVSKGGLHTVAVMNVGAPAAGMNAAVRSTVRIGLIQGNRVLVVHDGFEGLAKGQIEEAGWSYVGGWTGQGGSKLGTKRTLPKKNLEQISANITKYNIQGLVIIGGFEAYTGGLELMEGRKQFDELCIPFVVIPATVSNNVPGSDFSIGADTALNTICTTCDRIKQSAAGTKRRVFIIETMGGYCGYLATMAGLAAGADAAYIFEEPFTIRDLQVNVEHLVQKMKTTVKRGLVLRNEKCNENYTTDFIFNLYSEEGKGIFDSRKNVLGHMQQGGNPTPFDRNFATKMGAKATNWMSGKIKESYRNGRIFANTPDSGCVLGMRKRALVFQPVTELKDQTDFEHRIPKEQWWLKLRPILKILAKYEIDLDTSDHAHLEHISRKRSGEAAV
[3]
  binding: no binding

B2: phosphofructokinase, platelet type (PFKP) (enzyme, UniProt P47860 1-788)
chain: MSDQDSSTSSTSFPKYLEHLSGDGKAIGVLTSGGDAQGMNAAVRAVVRMGIYTGAKVYFIYEGYQGMVDGGSNIVEAKWECVSSILQVGGTIIGSARCQAFRSREGRLKAACNLVRLGITNLCVIGGDGSLTGANLFRKEWSGLLEELAKNGEIDSDTVKKHAYLNVVGMVGSIDNDFCGTDMTIGTDSALHRIIEVVDAIMTTAQSHQRTFVLEVMGRHCGYLALVSALACGADWVFLPESPPEEGWEEEMCLKLSENRARKKRLNIIIVSEGAIDTQNKPITSEKIKELVVTNLGFDTRVTILGHVQRGGTPSAFDRILASRMGVEAVLALLEATPETPACVVSLRGNQAVRLPLMECVQMTQDVQKAMDERRFDEAVKLRGRSFEGNLNTYKRLAIKEPDDKIPKSNCNVAIINVGAPAAGMNAAVRSAVRVGIAEGHKMFAIYDGFDGLANGQIKEIGWGDVGGWTGQGGSILGTKRTLPGKYLEKIAEQMHSKNINALLIIGGFEAYLGLLELAAARNKHEAFCVPMVMVPATVSNNVPGSDFSIGADTALNTITDTCDRIKQSASGTKRRVFIIETMGGYCGYLANMGGLAAGADAAYIFEEQFDIRDLQSNVMHLTEKMKTSIQRGLVLRNENCSVNYTTDFIYQLYSEEGKGVFDCRKNVLGHMQQGGAPSPFDRNFGTKISAKAMEWISAKLKGSHGTGKKFVSDDSICVLGIQKRDLLFKPVAELRKATDFEHRIPKQQWWLKLRPIMKILAKYEASYDMSDVGKLEPVHNHGELSAI
[4]
  binding: no binding
